{
  "source": "paper PMC9646673",
  "about": "“A Novel, Orally Bioavailable, Small-Molecule Inhibitor of PCSK9 With Significant Cholesterol-Lowering Properties In Vivo” (Journal of Lipid Research, 2022)",
  "key": {"[1]": {"tested_on": "APOE∗3-Leiden.CETP mice", "assay": "Second efficacy study (35 days, with atorvastatin): plasma lipids", "assay_type": "in vivo, mouse", "source_text": "(§1) Animal experiments were approved by the governmental central committee on animal experiments (AVD5010020172064) and TNO’s animal welfare body (TNO-471 and TNO-482). Female APOE∗3-Leiden.CETP transgenic mice (11–16 weeks of age) were bred at the animal facility of TNO-InnoSer (Leiden, The Netherlands). Female animals were used in this study as they are more responsive to dietary cholesterol and fat than males and therefore typically develop atherosclerosis more rapidly than male APOE∗3-Leiden and APOE∗3-Leiden.CETP mice on cholesterol-containing diets ([33], [34]). Although measurements of atherosclerosis were not included as part of the present study, females were used with the prospect in mind that atherosclerosis studies will follow. The mice were housed under standard conditions that included 12 h light-dark cycles and access to a WTD and sterilized tap water ad libitum. Body weight, food intake, and clinical signs of behavior were monitored throughout the studies. […] Time t = 0 (weeks) was designated as the time at which mice were matched into groups after the 3-week run-in period in each efficacy study.\n(§2) In both studies, blood samples were collected at weekly intervals via tail vein sampling after fasting the mice for 4 h. Blood samples were centrifugated (4500 g at 4°C), and the plasma was collected for the following analyses. Total plasma cholesterol levels were determined using a Cholesterol CHOD-PAP kit according to the manufacturer’s instructions. Plasma HDL-C levels were determined by first precipitating apoB-containing lipids using PEG 6000/glycine and then utilizing the Cholesterol CHOD-PAP kit ([35]). Non-HDL-C levels were determined by subtracting HDL-C levels from total cholesterol levels ([32]). Group-pooled lipoprotein profiles were determined by FPLC analysis using an AKTApurifier 10 FPLC system (GE Healthcare, Chicago, IL). Plasma PCSK9 levels were determined using a Mouse PCSK9 Quantikine ELISA kit as per the manufacturer’s protocol. ALT and AST levels of group-pooled samples were measured using the Roche Reflotron Plus System (Mannheim, Germany)."}, "[2]": {"tested_on": "APOE∗3-Leiden.CETP mice", "assay": "Fecal bile acid and neutral sterol content, cholesterol balance", "conditions": "final week of 35-day study"}, "[3]": {"tested_on": "APOE∗3-Leiden.CETP mice", "assay": "Second efficacy study: body weight, food intake, plasma ALT and AST", "assay_type": "in vivo, mouse", "conditions": "group-pooled, NYX-PCSK9i 50 mg/kg BID PO, atorvastatin […]", "source_text": "as §1, §2"}, "[4]": {"conditions": "day 0 (baseline), NYX-PCSK9i 50 mg/kg BID PO"}, "[5]": {"conditions": "day 14, NYX-PCSK9i 50 mg/kg BID PO"}, "[6]": {"conditions": "day 28, NYX-PCSK9i 50 mg/kg BID PO"}, "[7]": {"conditions": "day 35, NYX-PCSK9i 50 mg/kg BID PO"}},
  "data": [
    {"smiles": "CC(C)c1c(C(=O)Nc2ccccc2)c(-c2ccccc2)c(-c2ccc(F)cc2)n1CC[C@@H](O)C[C@@H](O)CC(=O)O", "note": "[atorvastatin, reference compound]", "values": [
      {"measurement": "Plasma HDL-cholesterol", "setting": "[1]; [4]", "value": "0.9 ± 0.2", "unit": "mmol/L"},
      {"measurement": "Plasma non- HDL-cholesterol", "setting": "[1]; [4]", "value": "14.7 ± 1.8", "unit": "mmol/L"},
      {"measurement": "Plasma triglycerides (mean ± SD)", "setting": "[1]; [4]", "value": "5.6 ± 2.3", "unit": "mmol/L"},
      {"measurement": "Plasma triglycerides (mean ± SD)", "setting": "[1]; day 7, NYX-PCSK9i 50 mg/kg BID PO", "value": "5.2 ± 2.0", "unit": "mmol/L"},
      {"measurement": "Plasma HDL-cholesterol", "setting": "[1]; [5]", "value": "1.1 ± 0.5", "unit": "mmol/L"},
      {"measurement": "Plasma non- HDL-cholesterol", "setting": "[1]; [5]", "value": "13.1 ± 2.2", "unit": "mmol/L"},
      {"measurement": "Plasma triglycerides (mean ± SD)", "setting": "[1]; [5]", "value": "5.9 ± 1.5", "unit": "mmol/L"},
      {"measurement": "Plasma triglycerides (mean ± SD)", "setting": "[1]; day 21, NYX-PCSK9i 50 mg/kg BID PO", "value": "4.9 ± 1.7", "unit": "mmol/L"},
      {"measurement": "Plasma HDL-cholesterol", "setting": "[1]; [6]", "value": "1.1 ± 0.5", "unit": "mmol/L"},
      {"measurement": "Plasma non- HDL-cholesterol", "setting": "[1]; [6]", "value": "12.8 ± 1.6", "unit": "mmol/L"},
      {"measurement": "Plasma triglycerides (mean ± SD)", "setting": "[1]; [6]", "value": "5.1 ± 1.1", "unit": "mmol/L"},
      {"measurement": "Plasma HDL-cholesterol", "setting": "[1]; [7]", "value": "0.5 ± 0.1", "unit": "mmol/L"},
      {"measurement": "Plasma non- HDL-cholesterol", "setting": "[1]; [7]", "value": "15.3 ± 1.9", "unit": "mmol/L"},
      {"measurement": "Plasma triglycerides (mean ± SD)", "setting": "[1]; [7]", "value": "6.4 ± 1.6", "unit": "mmol/L"},
      {"measurement": "cholesterol balance (dietary cholesterol intake minus fecal bile acids and neutral sterols)", "setting": "[2]", "value": "negative"},
      {"measurement": "Plasma ALT", "setting": "[3]; day 0 (baseline)", "value": 101, "unit": "U/L"},
      {"measurement": "Plasma AST", "setting": "[3]; day 0 (baseline)", "value": 101, "unit": "U/L"},
      {"measurement": "Plasma ALT", "setting": "[3]; day 14", "value": 90, "unit": "U/L"},
      {"measurement": "Plasma AST", "setting": "[3]; day 14", "value": 90, "unit": "U/L"},
      {"measurement": "Plasma ALT", "setting": "[3]; day 28", "value": 49, "unit": "U/L"},
      {"measurement": "Plasma AST", "setting": "[3]; day 28", "value": 49, "unit": "U/L"},
      {"measurement": "Plasma ALT", "setting": "[3]; day 35", "value": 57, "unit": "U/L"},
      {"measurement": "Plasma AST", "setting": "[3]; day 35", "value": 57, "unit": "U/L"}
    ]}
  ]
}
